Results: paper PMC2691602
Results are given in words; binding and its absence hold for the method and conditions named. Binding seen in cells or lysates may run through a third protein.

By UniProt entry, the sequences of proteins in these tests, tags left out.
UniProt Q15796: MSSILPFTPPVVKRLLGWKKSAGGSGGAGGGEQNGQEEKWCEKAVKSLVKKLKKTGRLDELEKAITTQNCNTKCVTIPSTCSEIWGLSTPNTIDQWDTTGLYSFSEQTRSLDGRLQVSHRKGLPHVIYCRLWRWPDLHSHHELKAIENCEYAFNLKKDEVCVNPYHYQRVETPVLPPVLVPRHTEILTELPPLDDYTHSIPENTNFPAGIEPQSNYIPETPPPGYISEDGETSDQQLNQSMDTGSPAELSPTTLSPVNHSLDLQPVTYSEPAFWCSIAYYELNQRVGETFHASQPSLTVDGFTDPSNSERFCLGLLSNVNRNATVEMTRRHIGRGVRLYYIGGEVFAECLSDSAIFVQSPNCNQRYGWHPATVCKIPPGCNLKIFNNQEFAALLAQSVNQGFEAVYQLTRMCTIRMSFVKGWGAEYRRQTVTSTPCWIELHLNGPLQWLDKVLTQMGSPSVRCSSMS

Target: T1, human tRNase Z^L (long form of tRNA 3′ processing endoribonuclease), endogenous (human (endogenous in 293 cells)) (UniProt Q9BQ52)
T1 sequence: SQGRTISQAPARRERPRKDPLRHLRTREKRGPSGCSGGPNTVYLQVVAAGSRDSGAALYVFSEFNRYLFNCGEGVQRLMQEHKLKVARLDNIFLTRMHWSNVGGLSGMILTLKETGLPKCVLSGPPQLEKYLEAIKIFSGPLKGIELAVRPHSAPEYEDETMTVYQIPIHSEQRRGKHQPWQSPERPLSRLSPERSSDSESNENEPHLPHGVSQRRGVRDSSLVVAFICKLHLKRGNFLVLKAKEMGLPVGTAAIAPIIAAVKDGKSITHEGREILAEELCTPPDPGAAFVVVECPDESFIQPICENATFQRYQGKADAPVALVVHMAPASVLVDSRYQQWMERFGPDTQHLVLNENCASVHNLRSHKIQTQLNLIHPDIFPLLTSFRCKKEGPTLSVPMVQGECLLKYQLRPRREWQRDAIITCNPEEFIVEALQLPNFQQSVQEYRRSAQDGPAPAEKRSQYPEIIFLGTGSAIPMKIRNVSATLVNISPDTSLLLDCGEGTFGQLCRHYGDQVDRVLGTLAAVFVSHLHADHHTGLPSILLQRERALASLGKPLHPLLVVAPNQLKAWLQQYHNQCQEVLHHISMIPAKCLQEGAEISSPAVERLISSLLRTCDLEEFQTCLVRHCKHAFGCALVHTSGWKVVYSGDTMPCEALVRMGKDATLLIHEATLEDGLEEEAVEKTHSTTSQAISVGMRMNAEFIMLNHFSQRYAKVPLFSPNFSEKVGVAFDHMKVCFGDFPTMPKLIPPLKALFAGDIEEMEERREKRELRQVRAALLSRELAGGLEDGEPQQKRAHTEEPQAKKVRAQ
Assay: co-IP; endogenous human tRNase Z^L; no figure and no details given; method implied by the cited co-immunoprecipitation that it is set against

Substance: Smad2 (from UniProt Q15796 1-467)
- binding: no binding
